Consider 37 compounds from PubChem BioAssay AID2685 (National Center for Advancing Translational Sciences (NCATS), 2010).

The term AC50 denotes the concentration giving half of the maximal activity seen. A higher AC50 goes with activity only at high concentration.

This is one part of the list. Further columns of the screen follow, without active or inactive calls. Most of these compounds were active or inconclusive in the main read-out, so they are no random draw. Words in brackets tell the shape of the fitted curve; partial curves, single points and poor fits give uncertain potencies.

This assay can be described thus: qHTS Assay for Lipid Storage Modulators in Drosophila S3 Cells.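 On cell number change: cells counted by Cell Tracker Red CMTPX staining in the red channel.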 To be noted: BODIPY lipid droplet fluorescence, 18-24 h; for cell number change: measured here: cell count max response, cells fed with added oleic acid. The method, boiled down: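 Drosophila S3 cells got compounds at several concentrations plus oleic acid (400 uM solution). Laser-scanning cytometry with 488 nm excitation read lipid droplets at 500-530 nm and cells at 575-640 nm. Percent activity was relative to 20 uM Triacsin C.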
A general note: Quantitative high-throughput screening tests each substance at several concentrations.

Setting [1] is: measured here: cell number channel AC50, cells fed with added oleic acid.
The mark [2] stands for this setting: measured here: lipid fluorescence (Fed channel) AC50, cells fed with added oleic acid.

In the case of `O=C(Nn1cnnc1)C1Cc2ccccc2CN1S(=O)(=O)c1ccc(F)cc1` (stereo unspecified), the cell number change was -76.4%. Also, under setting [1], the concentration at half-maximal activity (AC50) was 32.6 µM [falling, single point].

For `Cc1ccc(-c2noc(CN(C(=O)CCCCCN3C(=O)c4ccccc4C3=O)C(C)C)n2)cc1`, the cell number change was -15.4%. The half-maximal activity concentration (AC50) under setting [2] is 0.58 µM [rising, partial curve].

For `O=C(Nc1cccc2ccccc12)c1ccc([N+](=O)[O-])s1`, the cell number change was -45.3%. In addition, under setting [1], the half-maximal activity concentration (AC50) is 29.1 µM [falling, single point]. The concentration at half-maximal activity (AC50) under setting [2] is 0.13 µM [falling, full curve, poor fit]. In the case of `COc1ccc(/C=C/C(=O)Nc2cc(S(=O)(=O)N3CCOCC3)ccc2N2CCCC2)cc1OC`, the concentration at half-maximal activity (AC50) was 0.517 µM [rising, partial curve] under setting [1] and 1.16 µM [rising, partial curve] under setting [2]. On to `CC(NS(=O)(=O)c1ccc2c(c1)C(=O)c1cc(S(=O)(=O)NC(C)C(=O)O)ccc1-2)C(=O)O` (stereo unspecified), for which the cell number change was 15.3%. In addition, the AC50 under setting [2] is 6.51 µM [rising, single point]. Turning to `O=C(O)CC(CC(=O)Nc1ccccc1C(=O)O)c1ccccc1` (stereo unspecified), the cell number change was -22.3%. In addition, the AC50 under setting [2] was 20.6 µM [falling, single point]. As to `CCOc1ccc(NCc2nnc(SCC(=O)Nc3nc(-c4ccccc4)cs3)n2-c2ccccc2)cc1`, the cell number change is -15.9%. Moreover, the AC50 under setting [2] was 29.1 µM [falling, single point].

Turning to `O=c1[nH]c(CN2CCN(S(=O)(=O)c3ccc4c(c3)OCCO4)CC2)nc2sc3c(c12)CCCC3`, the cell number change came out at 11%. Turning to `CC(C)C[C@H](NC(=O)NCc1ccccc1Cl)C(=O)O`, the cell number change is -22%. Further, under setting [2], the concentration at half-maximal activity (AC50) is 7.31 µM [falling, partial curve, poor fit]. With `CN1CCC(N(C)C(=O)c2cc(-c3ccccc3Cl)nc3ccccc23)CC1`, the cell number change was found to be 1.1%. Besides, the AC50 under setting [2] was 0.092 µM [falling, full curve, poor fit]. As to `O=C1CC(=O)Nc2cc(S(=O)(=O)N3CCN(c4ccc([N+](=O)[O-])cc4)CC3)ccc2N1`, the cell number change was found to be 21.7%. For `COC(=O)c1ccc(NC(=O)Nc2cccc(F)c2)cc1`, the cell number change was -40.8%. Under setting [1], the AC50 is 29.1 µM [falling, single point]. Under setting [2], the AC50 is 32.6 µM [falling, single point].

Consider `O=C1CC(c2ccccc2)=Nc2ccccc2N1`, for which the cell number change stood at 12.1%. Turning to `Cc1cc(N=Cc2c(O)n(-c3ccc(C)c(C)c3)c(=O)c3ccccc23)no1`, the cell number change was -21.5%. Moreover, the AC50 under setting [1] was 0.116 µM [falling, full curve].

For the compound `Cc1ccc(CN2CCN(/N=C/c3ccc(N(C)C)cc3)CC2)cc1`, the cell number change is -3.64%. Moreover, the AC50 under setting [2] was 4.11 µM [falling, full curve]. On to `CC(C)(C)n1nc2c(c1NC(=O)CCCc1ccccc1)CS(=O)C2` (stereo unspecified), for which the cell number change was determined as 2.11%. For the same compound, the AC50 under setting [2] is 0.92 µM [rising, full curve]. Regarding `COc1cc(NC(=O)CSc2nc3ccccc3c(=O)n2C)ccc1NC(=O)c1ccco1`, the cell number change turned out to be 6.27%. Moreover, the AC50 under setting [2] was 0.461 µM [rising, full curve, poor fit]. In the case of `Cc1cc(C)c(C(=O)CSc2nnc(C)s2)c(C)c1`, the cell number change is -6.25%. Also, the AC50 under setting [2] is 0.82 µM [falling, single point]. Consider `Nc1ccc(-c2nc3c(Cl)cc(N)cc3[nH]2)cc1`, for which the cell number change was determined as 25.5%. Still for that read-out and setting: next, `COCCNC(=O)C(c1cccc(OC)c1)N(C(=O)Cn1nnc2ccccc21)c1cccnc1` (stereo unspecified): 11.2%. For the compound `CC(C)Cc1ccc(/C=C/C(=O)N2CCCCC2)cc1`, the cell number change is -8.06%. Under setting [2], the AC50 is 2.59 µM [rising, single point]. As for `Cc1cc(OCC(=O)NCCc2c[nH]c3ccccc23)c2c(C)cc(=O)oc2c1`, the AC50 under setting [2] was 29.1 µM [falling, single point]. As for `C/C(=N\Nc1ccc(C(=O)c2c(C)cc3ccccn23)cc1[N+](=O)[O-])c1ccc(O)cc1`, the cell number change was 5.92%. Further, under setting [2], the AC50 is 6.51 µM [falling, single point]. Take `O=C(O)C1CCN(C(=O)COc2ccc3c4c(c(=O)oc3c2)CCCC4)CC1`: the cell number change was found to be 17.8%. Under setting [2], the AC50 was 0.651 µM [rising, single point]. For `O=C(CNC(=O)C12CC3CC(CC(C3)C1)C2)NC1=NCCS1`, the cell number change is -24.6%. In addition, the AC50 under setting [1] is 0.103 µM [falling, full curve, poor fit]. Also, the AC50 under setting [2] was 0.0651 µM [falling, full curve]. Consider `CCOC(=O)c1c(CN2CCN(c3ccccc3)CC2)oc2cc(Br)c(O)cc12`, for which the cell number change was -14.6%. The AC50 under setting [2] was 20.6 µM [falling, single point]. With `COc1ccccc1NS(=O)(=O)c1cc(NC(=O)Cn2cnc3c2c(=O)n(C)c(=O)n3C)ccc1C`, the cell number change is -13.4%. Besides, the AC50 under setting [2] was 0.58 µM [rising, single point]. Regarding `COCCN=c1scc(-c2cc(OC)c(OC)c(OC)c2)n1/N=C/c1c(C)[nH]c2ccccc12`, the cell number change was determined as 11.6%. Moreover, under setting [2], the AC50 was 18.4 µM [falling, single point]. On to `CCOC(=O)N1CCC(NC(=O)c2cn(-c3ccc(OC)cc3)c(=O)c3ccccc23)CC1`, for which the concentration at half-maximal activity (AC50) under setting [2] is 0.116 µM [falling, full curve, poor fit]. `O=c1oc2ccccc2c(O)c1C=NCc1ccccn1`: the cell number change is -42.6%. Also, the concentration at half-maximal activity (AC50) under setting [1] was 18.4 µM [falling, single point]. On to `O=C(COc1ccccc1[N+](=O)[O-])N1CCCc2ccccc21`, for which the cell number change turned out to be 10%. The half-maximal activity concentration (AC50) under setting [2] is 29.1 µM [rising, single point]. `CCOC(=O)C1CCN(C(=O)c2cn(CCOC)c(=O)c3c2c2ccccc2n3C)CC1`: the cell number change was 14.2%. Moreover, the concentration at half-maximal activity (AC50) under setting [2] is 18.4 µM [rising, partial curve].

Take `CC(C)(C)c1cc(C(=O)N2CCN(c3ncccn3)CC2)ccn1`: the cell number change is -10%. Besides, the AC50 under setting [1] was 0.0058 µM [falling, full curve, poor fit]. Besides, the half-maximal activity concentration (AC50) under setting [2] was 0.00517 µM [falling, full curve, poor fit].

In the case of `O=C1CCC([N+](=O)[O-])C(c2cc(Br)ccc2F)N1` (stereo unspecified), the cell number change was -6.15%. Consider `Cc1cc(C)c(C(=O)/C=C/c2cccc3ccccc23)c(=O)[nH]1`, for which the cell number change is -12.9%. The half-maximal activity concentration (AC50) under setting [1] was 6.51 µM [falling, single point]. In addition, under setting [2], the half-maximal activity concentration (AC50) was 16.4 µM [falling, partial curve]. Regarding `COc1ccc2c(c1)CCC1C2=NN(/C(C)=C\C(C)=O)C1c1ccc(F)cc1` (stereo unspecified), the cell number change turned out to be 5.7%. The AC50 under setting [2] was 0.731 µM [falling, full curve].

`NCCCCC(N)c1cn([C@@H](CCC(=O)O)C(=O)N2CCNCC2)nn1` (stereo partly specified): the cell number change is -4.09%. In addition, the AC50 under setting [2] is 3.26 µM [rising, partial curve, poor fit].
